Reference: patent US10731221B2, “Diagnosing IDH1 related subgroups and treatment of cancer” (Dignity Health, priority 2009, dated 2020)
At least one structure is not confirmed: it was looked up by name or label, or the drawing left a doubt.

Tested on: Glioblastoma AKT subgroups (Mesenchymal, Secondary-Like)
Assay: Kaplan Meier survival of TCGA patients receiving more vs. less temozolomide, by AKT subgroup
Format: in vivo, human
Conditions: ≥3 vs. <3 cycles
Excerpt: FIG. 17 depicts, in accordance with various embodiments of the invention, evidence that Mesenchymal patients benefit from temozolomide. Kaplan Meier survival curves were plotted within each subgroup for TCGA patients receiving more (≥3 cycles; red) vs. less (<3 cycles; black) temozolomide. […] Median survival was 0.6 years greater for Mesenchymal patients treated with more temozolomide (1.8 years) vs. less temozolomide (1.2 years); p=0.01 log rank; not age adjusted.
We plotted Kaplan Meier survival curves for patients treated with more vs. less TMZ in each AKT subgroup (FIG. 17). Since most TCGA patients received some TMZ, it was not possible to plot survival curves for patients treated with and without the drug. Instead, we compared survival in 2 treatment arms, those receiving more (≥3) vs. less (<3) cycles.
There was a tendency for patients who received more TMZ to not have received a nitrosourea. […] Without wishing to be bound by any particular theory, this may underlie the worse survival of patients receiving more TMZ in the Secondary-Like subgroup.

## Cn1nnc2c(C(N)=O)ncn2c1=O [temozolomide]
Mesenchymal patients only
  difference in survival between treatment arms: statistically significant difference in survival
Secondary-Like subtype patients
  survival with more vs. less TMZ: worse
